PubChem BioAssay AID504774 | Drosophila RNAi Screening Center, 2011

- Screen: 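Knock-downs that shift viability of MMS-exposed cells relative to untreated ones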 (primary screen)
- Cells: Drosophila Kc167 cells
- Reagents: long dsRNA against Drosophila genes, about 0.25 µg dsRNA per well
- Time to read-out: about 6 days: 3 days knock-down, then 3 days with or without MMS
- Conditions: methyl methanesulphonate 0.004% (w/v) for 3 days after knock-down
- Measurement: 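ATP-dependent luminescence as a measure of live cells in MMS-exposed wells, quantile normalised within each plate, with replicate values also given as a mean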
- Direction: mean viability with MMS and viability with MMS: higher = more surviving cells after MMS
The screen tested about 23,000 reagents; this is an unselected part of those with a known target gene and a result. 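Values are quantile-normalised luminescence on an arbitrary scale; higher means more cells surviving MMS.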 No sequences are given here.

Gene | amplicon | mean viability with MMS | viability with MMS, replicate 1 | viability with MMS, replicate 2
CG9171 | DRSC03152 | 3.69e6 | 4.31e6 | 4.12e6
CG9171 | DRSC21813 | 3.47e6 | 3.97e6 | 3.93e6
Six4 | DRSC11881 | 3.53e6 | 4.00e6 | 4.01e6
Iru (Iruka) | DRSC14457 | 3.71e6 | 4.28e6 | 4.15e6
Sil1 (Sil1 nucleotide exchange factor) | DRSC14242 | 3.33e6 | 3.77e6 | 3.81e6
CG10011 | DRSC14174 | 3.47e6 | 3.87e6 | 4.00e6
Stt3B | DRSC16781 | 3.50e6 | 3.92e6 | 4.01e6
CG6688 | DRSC16094 | 3.72e6 | 4.36e6 | 4.05e6
sip2 (septin interacting protein 2) | DRSC03154 | 3.48e6 | 3.93e6 | 3.96e6
c-cup (calcutta cup) | DRSC00458 | 3.38e6 | 3.80e6 | 3.79e6
CG15432 | DRSC00447 | 3.25e6 | 3.61e6 | 3.62e6
CG32199 | DRSC09990 | 3.52e6 | 4.01e6 | 3.96e6
CG11865 | DRSC01872 | 3.56e6 | 4.12e6 | 3.96e6
Cyp309a2 (Cytochrome P450 309a2) | DRSC00526 | 3.46e6 | 3.93e6 | 3.90e6
Trissin | DRSC14994 | 3.46e6 | 3.81e6 | 4.02e6
Fcp3C (Follicle cell protein 3C) | DRSC18665 | 3.56e6 | 4.01e6 | 4.07e6
CG30458 | DRSC06660 | 3.75e6 | 4.08e6 | 4.00e6
dpr20 (defective proboscis extension response 20) | DRSC08265 | 3.65e6 | 4.09e6 | 4.20e6
pita | DRSC04006 | 3.83e6 | 4.53e6 | 4.14e6
pita | DRSC04435 | 3.66e6 | 4.09e6 | 4.10e6
RpS23 (Ribosomal protein S23) | DRSC07169 | 3.10e6 | 3.62e6 | 3.66e6
dpr3 (defective proboscis extension response 3) | DRSC00395 | 3.45e6 | 3.96e6 | 3.83e6
dpr3 (defective proboscis extension response 3) | DRSC00396 | 3.51e6 | 4.04e6 | 3.92e6
dpr3 (defective proboscis extension response 3) | DRSC21369 | 2.39e6 | 3.56e6 | 3.56e6
Grl62a (Gustatory receptor-like 62a) | DRSC07963 | 3.70e6 | 4.23e6 | 4.11e6
Rad17 | DRSC16811 | 3.53e6 | 4.11e6 | 3.91e6
Tbce (Tubulin-binding cofactor E) | DRSC04897 | 3.31e6 | 3.72e6 | 3.75e6
Had1 (beta Hydroxy acid dehydrogenase 1) | DRSC20216 | 3.51e6 | 4.01e6 | 3.95e6
CG3698 | DRSC11749 | 3.58e6 | 4.11e6 | 4.01e6
Ppt2 (Palmitoyl-protein Thioesterase 2) | DRSC02786 | 3.54e6 | 4.12e6 | 3.93e6
Opbp (Optix-binding protein) | DRSC04966 | 3.43e6 | 3.96e6 | 3.79e6
Mco1 (Multicopper oxidase 1) | DRSC02720 | 3.82e6 | 4.09e6 | 4.62e6
mRpS33 (mitochondrial ribosomal protein S33) | DRSC14239 | 3.37e6 | 3.86e6 | 3.75e6
CG7747 | DRSC07038 | 3.55e6 | 4.02e6 | 4.03e6
red (red Malpighian tubules) | DRSC14477 | 3.06e6 | 3.56e6 | 3.66e6
red (red Malpighian tubules) | DRSC23177 | 3.35e6 | 3.84e6 | 3.78e6
CG8478 | DRSC16427 | 3.59e6 | 4.00e6 | 4.11e6
spg (sponge) | DRSC14373 | 3.59e6 | 4.16e6 | 3.99e6
spg (sponge) | DRSC14881 | 3.52e6 | 4.13e6 | 3.83e6
CG33270 | DRSC10584 | 3.52e6 | 3.93e6 | 4.05e6
CG11180 | DRSC06055 | 3.58e6 | 4.03e6 | 4.10e6
IntS2 (Integrator 2) | DRSC20094 | 3.33e6 | 3.81e6 | 3.66e6
sip1 (septin interacting protein 1) | DRSC03609 | 3.30e6 | 3.58e6 | 3.78e6
sip1 (septin interacting protein 1) | DRSC22648 | 3.37e6 | 3.88e6 | 3.89e6
Wnt2 (Wnt oncogene analog 2) | DRSC05160 | 3.44e6 | 3.87e6 | 3.88e6
Wnt2 (Wnt oncogene analog 2) | DRSC07574 | 3.53e6 | 3.97e6 | 4.04e6

Reformatted: entries from further up
IntS2 (Integrator 2) [DRSC20094]
- mean viability with MMS: 3.33e6
- viability with MMS, replicate 1: 3.81e6
- viability with MMS, replicate 2: 3.66e6

sip1 (septin interacting protein 1) [DRSC03609]
- mean viability with MMS: 3.30e6
- viability with MMS, replicate 1: 3.58e6
- viability with MMS, replicate 2: 3.78e6
